Our source for the cell number change and AC50 values is PubChem BioAssay AID2685 (National Center for Advancing Translational Sciences (NCATS), 2010).

A short description of this assay: qHTS Assay for Lipid Storage Modulators in Drosophila S3 Cells.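 As to cell number change: cells counted by Cell Tracker Red CMTPX staining in the red channel.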 The settings on record: BODIPY lipid droplet fluorescence, 18-24 h; for cell number change: measured here: cell count max response, cells fed with added oleic acid. Summed up: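 Drosophila S3 cells got compounds at several concentrations plus oleic acid (400 uM solution). Laser-scanning cytometry with 488 nm excitation read lipid droplets at 500-530 nm and cells at 575-640 nm. Percent activity was relative to 20 uM Triacsin C.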
(Quantitative high-throughput screening tests each substance at several concentrations.)

The mark [1] stands for this setting: measured here: lipid fluorescence (Fed channel) AC50, cells fed with added oleic acid.
Where [2] appears, read: measured here: cell number channel AC50, cells fed with added oleic acid.

The list shows a part of the results. These are further read-outs of the screen, such as a control signal, another cell line or another target. No call is given for them. Most of these compounds were active or inconclusive in the main read-out, so they are no random draw. The note in brackets gives the kind of curve behind each potency; many fits are weak.

With `Cc1ccc2cc(CCNC(=O)c3ccc(C)c([N+](=O)[O-])c3)c(=O)[nH]c2c1`, the cell number change is -6.97%.

What is called AC50 is the concentration at which the activity in the assay is half-maximal. A higher AC50 goes with activity only at high concentration. In the case of `Cc1ccc(NC(=O)CCCN2C(=S)NC(C)(C)CC2C)cc1` (stereo not drawn), the cell number change is 43.6%. Further, the half-maximal activity concentration (AC50) under setting [1] is 29.1 µM [rising, single point].

`Cc1scc(C(=O)N/N=C/c2ccc(Cl)s2)c1C`: the cell number change was 11.7%. The AC50 under setting [1] is 2.91 µM [rising, partial curve].

As to `COc1ccc(CC(=O)N2CC(C)CC(C)C2)cc1OC` (stereo not drawn), the concentration at half-maximal activity (AC50) under setting [1] is 5.8 µM [falling, single point].

Consider `COc1ccc(C(=O)Cc2ccc(OC)c(OC)c2)c(OC)c1`, for which the cell number change is 5.69%. Further, the AC50 under setting [2] is 0.411 µM [rising, full curve]. The half-maximal activity concentration (AC50) under setting [1] is 3.66 µM [rising, partial curve].

As to `COc1ccc(C(=O)CSc2nnc(NC(=O)C3CC(=O)N(c4ccccc4C)C3)s2)cc1` (stereo not drawn), the cell number change was 4.5%. Under setting [1], the AC50 is 0.0259 µM [rising, full curve, poor fit].

`CC(=O)Nc1cccc(NC(=O)c2c(-c3ccccc3Cl)noc2C)c1`: the cell number change is 26%. Moreover, the concentration at half-maximal activity (AC50) under setting [1] was 10.3 µM [rising, partial curve].

As for `CC(C)N(C(=O)COC(=O)[C@@H]1CC(O)CN1S(=O)(=O)c1ccccc1[N+](=O)[O-])C(C)C` (stereo partly drawn), the cell number change is -8.22%. The AC50 under setting [1] was 10.3 µM [falling, partial curve].

Regarding `CCc1nnc(NC(=O)C2CCC(CNc3c(N4CCC(C)CC4)c(=O)c3=O)CC2)s1` (stereo not drawn), the cell number change worked out at 0.136%. In addition, the concentration at half-maximal activity (AC50) under setting [1] was 1.16 µM [falling, full curve].

Turning to `Fc1ccccc1N1CCN(c2nc(-c3cccs3)nc3ccccc23)CC1`, the cell number change amounted to 31%. Moreover, under setting [2], the AC50 is 1.03 µM [rising, full curve, poor fit]. Also, the AC50 under setting [1] was 2.31 µM [rising, partial curve, poor fit].

`Cc1ccc2cc(C)c(SCC#N)nc2c1`: the cell number change stood at 70.3%. In addition, the AC50 under setting [2] is 20.6 µM [rising, single point]. Under setting [1], the concentration at half-maximal activity (AC50) was 0.651 µM [rising, partial curve].

Take `CN(CC(=O)NCc1ccco1)C(=O)C1CC(=O)N(c2ccc3c(c2)OCCO3)C1` (stereo not drawn): the cell number change amounted to 12%. Further, the half-maximal activity concentration (AC50) under setting [1] is 6.51 µM [falling, single point].

As to `CN1CCCN(S(=O)(=O)c2ccccc2)CC1`, the cell number change is -3.55%.

As to `CCN(C(=O)COC(=O)c1c(C)nn(-c2ccccc2)c1Cl)c1c(N)n(Cc2ccccc2)c(=O)[nH]c1=O`, the cell number change is 8.84%.

For `O=C(CNCC1CCCCC1)Nc1ccc(OC(F)(F)F)cc1`, the cell number change came out at 35%.

As for `CCOc1ccc(-c2nnc(SCc3nc4ccccc4[nH]3)n2N)cc1`, the cell number change is 7.56%.

Consider `CSc1cc(-c2ccc(Cl)cc2)[nH]c(=O)c1C#N`, for which the cell number change is -32.8%. In addition, the AC50 under setting [2] was 3.26 µM [falling, partial curve, poor fit]. Moreover, under setting [1], the AC50 was 1.3 µM [falling, partial curve].

In the case of `COc1ccc(N2CCN(C(=O)c3ccc4[nH]c(C)c(C)c4c3)CC2)cc1`, the cell number change was 10.9%.

`O=C(NCc1cccc(Cl)c1)c1ccncc1`: the cell number change is -6.49%. The AC50 under setting [1] is 29.1 µM [falling, single point].

Take `CC1(C)Cc2c(sc3nc[nH]c(=O)c23)CO1`: the cell number change is -14.3%. The concentration at half-maximal activity (AC50) under setting [1] was 18.4 µM [falling, single point].

On to `CC(=O)Cc1nsc(NC(=O)c2ccccc2)n1`, for which the cell number change was -23%.

`C/C(=N\Nc1ccc(S(=O)(=O)N2CCCCC2)cn1)c1cccc(Br)c1`: the cell number change was -19.4%. Also, the half-maximal activity concentration (AC50) under setting [1] was 0.411 µM [falling, partial curve].

In the case of `NC(=O)N/N=C/c1cn(CC(=O)Nc2ccc(F)cc2)c2ccccc12`, the concentration at half-maximal activity (AC50) is 0.517 µM [rising, single point] under setting [2] and 0.731 µM [rising, partial curve, poor fit] under setting [1].

On to `O=C(CN1C(=O)c2ccccc2C1=O)NCc1ccc(N2CCOCC2)cc1`, for which the cell number change came to 5.68%. Further, the half-maximal activity concentration (AC50) under setting [1] is 0.13 µM [falling, full curve, poor fit].

On to `CNc1nc(-c2ccc3c(c2)CCN3C(=O)c2ccc(F)cc2)cs1`, for which the cell number change was 48.1%. The AC50 under setting [2] was 29.1 µM [rising, single point]. Besides, under setting [1], the half-maximal activity concentration (AC50) is 5.8 µM [rising, full curve].

`Cc1occc1C(=O)N/N=C/C(Br)=C/c1ccccc1`: the cell number change was 24.1%. For the same molecule, under setting [1], the half-maximal activity concentration (AC50) is 6.51 µM [falling, single point].

For the molecule `CCOC(=O)N1CCN(C(=O)c2cc(COc3ccc4ncccc4c3)on2)CC1`, the cell number change was -53.2%. Also, the AC50 under setting [2] was 16.4 µM [falling, partial curve]. Also, the concentration at half-maximal activity (AC50) under setting [1] is 8.2 µM [falling, partial curve].

On to `CCCCN1CC(O)=C(c2nc3ccccc3[nH]2)C1=N`, for which the half-maximal activity concentration (AC50) under setting [1] is 7.31 µM [rising, single point].

Consider `Cc1ccc(-c2cn(-c3ccc(SC(F)F)cc3)c3[n+]2CCC3)cc1`, for which the cell number change is -3.88%. For the same molecule, the half-maximal activity concentration (AC50) under setting [1] was 29.1 µM [falling, single point].

`Cc1cccn2c(=O)c3cc(C(=O)NCC4CCCO4)c(=N)n(C4CCCC4)c3nc12` (stereo not drawn): the cell number change turned out to be 11.3%.

Take `O=C(CN1CCN(Cc2ccc(Cl)cc2)CC1)N/N=C/c1ccccc1F`: the cell number change was 15.2%.

For `O=C(COC(=O)c1ccc(Br)o1)Nc1ncc(Cl)cc1Cl`, the cell number change was found to be 21%. The AC50 under setting [2] is 0.0651 µM [rising, full curve, poor fit]. Under setting [1], the concentration at half-maximal activity (AC50) is 0.058 µM [rising, full curve, poor fit].

As to `COC(=O)CCCC1=CC2=CC(=O)C(C)(OC(=O)C3CCCC3)C(=O)C2=CO1` (stereo not drawn), the cell number change stood at 6.01%. The concentration at half-maximal activity (AC50) under setting [1] is 6.51 µM [falling, single point].

`CC12CCC(=O)N1C(C(=O)Nc1nc3ccc(Cl)cc3s1)CS2` (stereo not drawn): under setting [1], the AC50 is 29.1 µM [rising, single point].

With `Cc1noc(C)c1CSCC(=O)N(C)CC(=O)Nc1ccc(Cl)c(C(F)(F)F)c1`, the cell number change was -12.2%. Also, the AC50 under setting [1] is 16.4 µM [falling, single point].

With `COC(=O)c1cc2occc2n1CC(=O)Nc1ccc(OC)c(OC)c1`, the cell number change was determined as 2.17%. Further, the AC50 under setting [1] is 0.146 µM [falling, full curve].

Turning to `O=C(/C=C/c1ccco1)Nc1nc(-c2ccccc2)cs1`, the cell number change was determined as 33.3%. In addition, the AC50 under setting [2] was 20.6 µM [rising, single point].

Consider `O=C(NCc1ccccn1)C1COc2ccccc2O1` (stereo not drawn), for which the cell number change is 38.6%. The AC50 under setting [2] was 13 µM [rising, partial curve, poor fit].

On to `CCC(=O)OCC(=O)C1(OC(=O)CC)[C@H](C)C[C@H]2[C@H]3[C@H]([C@@H](O)C[C@@]21C)[C@@]1(C)C=CC(=O)C=C1C[C@H]3Cl` (stereo partly drawn), for which the cell number change is -1.12%. Also, the concentration at half-maximal activity (AC50) under setting [1] was 2.06 µM [rising, partial curve].
